{"source": "patent US8822410B2", "about": "“Tympanic membrane permeating ear drops and uses thereof” (Children's Medical Center Corporation, priority 2008, dated 2014)", "key": {"[1]": {"conditions": "chinchilla, not told, 48 h"}, "[2]": {"assay": "Ciprofloxacin levels in middle ear fluid and plasma after gel treatment", "format": "in vivo, chinchilla"}}}
{"compound": "O=C(O)c1cn(C2CC2)c2cc(N3CCNCC3)c(F)cc2c1=O", "note": "[ciprofloxacin]", "values": [{"measurement": "Trans-TM ciprofloxacin flux versus target MIC", "setting": "[1]", "result": "failed to reach MIC-levels within 48 hours"}, {"measurement": "concentration at 48 h", "setting": "[2]; male, chinchilla, in vivo", "result": "< 500", "unit": "ng/mL"}, {"measurement": "plasma ciprofloxacin", "setting": "[2]; superior sagital sinus, 2 and 5 days post-treatment, detection limit approximately 100 ng/mL", "result": "no detectable ciprofloxacin"}]}
